These are yes or no findings as the source states them, for the method shown. In cells and extracts the contact can be indirect. These calls come from enrichment with a bait or labelling near it, and not all partners need be listed.
T1: Npac (mouse (endogenous in E14)) (UniProt Q922P9)
T1 sequence: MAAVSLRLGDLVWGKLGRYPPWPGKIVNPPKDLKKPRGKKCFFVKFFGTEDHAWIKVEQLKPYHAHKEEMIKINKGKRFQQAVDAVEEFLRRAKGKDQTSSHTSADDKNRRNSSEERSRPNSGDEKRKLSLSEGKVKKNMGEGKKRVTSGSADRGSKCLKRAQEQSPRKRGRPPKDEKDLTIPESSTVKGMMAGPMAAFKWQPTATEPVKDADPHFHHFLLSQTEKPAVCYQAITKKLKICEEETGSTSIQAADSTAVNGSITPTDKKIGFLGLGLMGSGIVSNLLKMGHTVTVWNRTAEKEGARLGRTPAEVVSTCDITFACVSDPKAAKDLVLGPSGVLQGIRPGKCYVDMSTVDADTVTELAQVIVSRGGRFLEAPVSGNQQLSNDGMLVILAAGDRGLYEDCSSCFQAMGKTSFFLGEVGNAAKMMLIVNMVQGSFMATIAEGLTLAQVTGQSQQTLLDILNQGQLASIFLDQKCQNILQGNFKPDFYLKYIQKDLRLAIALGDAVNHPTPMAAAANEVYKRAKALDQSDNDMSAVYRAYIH

The chains behind the UniProt entries cited, without tags or fusion partners.
UniProt P09405: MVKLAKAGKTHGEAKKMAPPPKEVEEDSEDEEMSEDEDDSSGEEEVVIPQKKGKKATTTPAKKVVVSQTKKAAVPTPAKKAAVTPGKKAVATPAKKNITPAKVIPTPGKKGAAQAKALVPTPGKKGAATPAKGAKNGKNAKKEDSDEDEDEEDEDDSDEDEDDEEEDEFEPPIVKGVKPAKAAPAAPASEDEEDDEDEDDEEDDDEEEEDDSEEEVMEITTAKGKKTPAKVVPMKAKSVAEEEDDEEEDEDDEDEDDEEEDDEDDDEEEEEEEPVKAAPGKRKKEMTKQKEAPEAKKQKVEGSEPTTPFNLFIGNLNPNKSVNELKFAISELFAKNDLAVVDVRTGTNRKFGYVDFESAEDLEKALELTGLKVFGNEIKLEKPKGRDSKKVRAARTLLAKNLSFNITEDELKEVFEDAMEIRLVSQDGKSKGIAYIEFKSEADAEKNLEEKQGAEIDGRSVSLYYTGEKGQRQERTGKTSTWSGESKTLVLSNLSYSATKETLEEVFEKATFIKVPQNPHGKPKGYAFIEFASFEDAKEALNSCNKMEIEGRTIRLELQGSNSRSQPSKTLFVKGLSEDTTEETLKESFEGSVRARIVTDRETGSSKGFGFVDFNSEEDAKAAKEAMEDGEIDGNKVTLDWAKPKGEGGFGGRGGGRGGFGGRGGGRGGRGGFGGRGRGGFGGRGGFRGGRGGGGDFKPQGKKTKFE
UniProt Q6PDM2: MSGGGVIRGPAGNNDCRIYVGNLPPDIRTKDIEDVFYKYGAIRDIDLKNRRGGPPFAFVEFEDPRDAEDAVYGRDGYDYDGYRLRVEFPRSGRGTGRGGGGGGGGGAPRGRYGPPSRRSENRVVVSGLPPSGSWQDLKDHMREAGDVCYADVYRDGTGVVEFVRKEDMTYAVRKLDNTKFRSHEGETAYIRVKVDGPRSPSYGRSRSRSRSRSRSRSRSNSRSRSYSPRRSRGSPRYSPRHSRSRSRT


Biological target: T1, Npac (mouse (endogenous in E14))
Assay: affinity purification with mass spectrometry; affinity purification with a specific anti-Npac antibody from nuclear extracts of E14 cells, nonspecific IgG as negative control, LC-MS/MS

| Molecule | binding |
| --- | --- |
| Nucleolin (from UniProt P09405 1-707) | binds |
| Serine/arginine-rich splicing factor 1 (from UniProt Q6PDM2 1-248) | binds |
| L1td1 (protein, UniProt Q587J6 1-782) MSGVQSKAARLQKERKEKLSADRERKTATSLCLKHSEVPASMMKQFNALMEMQEVMFAEMRETYKNDIKEMLLKRTAPWVKHLEERIGQQEGDAISERPKPGEKVEELSSGTDEDTENLTVRSKKGKQDKAKPLNSSHVLKSSLERGGEALRGEHGRCGESSSLVDWKNANEKPAREASCQSEENRLKAPKESPPEGGAGATLRLAADFSAATLDVGRQWSQVFRLLKEKELEPELQCSVKLAFKCDGEANVFSDLHSLRQFTSRKPFLRELLKDVFPQNEGGRRNELRERLGKTLGDTKHEARRIASDSLSFLFIKEVEVASPEVKTYKEETLDRKNKGTLKKQEGEEEEISETQGEETSEGETSELGEEEGSESEEEEESSESEEEEESSESAEEIGFISLVVDSESEEEVNRKTASQTKKKETFHGLKELAFSYLVWDSKKKKLVRCQEGGAAAASTQRIGMPCLTLYLTSPSESLGAGSDGPKSHSCTKLSALSQVTPLLTNIEKGRYKVPQTEEPTAKEADLILETEENFKRGVISVIRQMQREVDKIKNIYVSDVLNMKSSLDDLNSLACTIEARVSEQEDAVEGLTKDTMQLAREIVDKERLREREDRFRSSNIRVIGIPEKENRENGAVDIIKEVIEENFAELEDQSLEIVSAHRVPNSVDEHRLTPRHILVKFGSASDKQRVLKASRAKQEITYRGSKIRLTADLSPGTIDARSQWCGIIKILQDEGFQPRILYPAKLAFDFKGKTKIFFDIEEFKKFISDIPYLKDLLNNIH | binds |

Further lines, results first:

| binding | Molecule |
| --- | --- |
| binds | Refbp2 (from UniProt Q9JJW6 1-218) |
| binds | Sfpq (protein, UniProt Q8VIJ6 1-699) MSRDRFRSRGGGGGGFHRRGGGGGRGGLHDFRSPPPGMGLNQNRGPMGPGPGGPKPPLPPPPPHQQQQQPPPQQPPPQQPPPHQQPPPHQPPHQQPPPPPQESKPVVPQGPGSAPGVSSAPPPAVSAPPANPPTTGAPPGPGPTPTPPPAVPSTAPGPPPPSTPSSGVSTTPPQTGGPPPPPAGGAGPGPKPGPGPGGPKGGKMPGGPKPGGGPGMGAPGGHPKPPHRGGGEPRGGRQHHAPYHQQHHQGPPPGGPGPRTEEKISDSEGFKANLSLLRRPGEKTYTQRCRLFVGNLPADITEDEFKRLFAKYGEPGEVFINKGKGFGFIKLESRALAEIAKAELDDTPMRGRQLRVRFATHAAALSVRNLSPYVSNELLEEAFSQFGPIERAVVIVDDRGRSTGKGIVEFASKPAARKAFERCSEGVFLLTTTPRPVIVEPLEQLDDEDGLPEKLAQKNPMYQKERETPPRFAQHGTFEYEYSQRWKSLDEMEKQQREQVEKNMKDAKDKLESEMEDAYHEHQANLLRQDLMRRQEELRRMEELHSQEMQKRKEMQLRQEEERRRREEEMMIRQREMEEQMRRQREESYSRMGYMDPRERDMRMGGGGTMNMGDPYGSGGQKFPPLGGGGGIGYEANPGVPPATMSGSMMGSDMRTERFGQGGAGPVGGQGPRGMGPGTPAGYGRGREEYEGPNKKPRF |

Reference: article PMC11477393
